Assay results as given in PMC11282859.
These are yes or no findings as the source states them, for the method shown. Binding seen in cells or lysates may run through a third protein. Some binding calls cover weakened binding; strength is not graded here.

By UniProt entry, the sequences of proteins in these tests, tags left out.
UniProt Q86WV6: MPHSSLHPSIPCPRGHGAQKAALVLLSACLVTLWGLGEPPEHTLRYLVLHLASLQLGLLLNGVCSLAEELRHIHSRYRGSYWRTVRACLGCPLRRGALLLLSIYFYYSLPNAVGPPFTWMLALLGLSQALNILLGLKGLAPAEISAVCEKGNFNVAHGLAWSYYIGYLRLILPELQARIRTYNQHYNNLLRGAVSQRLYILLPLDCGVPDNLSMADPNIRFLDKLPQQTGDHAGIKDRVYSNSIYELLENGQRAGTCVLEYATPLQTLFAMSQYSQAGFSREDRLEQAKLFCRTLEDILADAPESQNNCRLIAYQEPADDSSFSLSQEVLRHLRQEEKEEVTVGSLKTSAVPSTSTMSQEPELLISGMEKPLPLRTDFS
UniProt P23443: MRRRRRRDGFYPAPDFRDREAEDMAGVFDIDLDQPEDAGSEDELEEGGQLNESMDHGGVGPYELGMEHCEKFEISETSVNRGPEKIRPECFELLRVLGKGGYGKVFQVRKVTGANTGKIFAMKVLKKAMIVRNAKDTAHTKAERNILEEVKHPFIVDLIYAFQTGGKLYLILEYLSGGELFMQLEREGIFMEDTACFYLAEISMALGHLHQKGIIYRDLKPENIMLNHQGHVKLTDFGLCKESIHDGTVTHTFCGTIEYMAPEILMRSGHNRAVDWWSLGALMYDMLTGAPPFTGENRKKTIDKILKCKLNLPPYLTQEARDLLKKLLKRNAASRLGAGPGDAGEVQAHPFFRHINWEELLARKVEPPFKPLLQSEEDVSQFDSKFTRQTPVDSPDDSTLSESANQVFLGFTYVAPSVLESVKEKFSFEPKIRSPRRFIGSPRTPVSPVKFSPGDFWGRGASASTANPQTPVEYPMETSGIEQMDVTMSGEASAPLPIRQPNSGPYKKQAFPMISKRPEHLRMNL

What was measured:
[1] = molecular target: T1, Membrane-associated RING-CH-1 (MARCH1) (human (cDNA from HEK293T)) (UniProt Q8TCQ1); assay: co-IP; HEK293T cells co-transfected for 24 h (STING co-expressed in Fig. 4C); NETN lysis buffer (20 mM Tris pH 8.0, 150 mM NaCl, 0.5% NP-40, 1 mM EDTA); flag beads 6 h at 4 C; Western blot; cell treatments by panel: 10 uM MG132 for 12 h, serum starvation 16 h then 100 nM insulin 15 min, GSK8612 2 uM, Torin 1 100 nM, H151 1 uM for 6 h, MARCH1 overexpression, shTBK1
T1 sequence: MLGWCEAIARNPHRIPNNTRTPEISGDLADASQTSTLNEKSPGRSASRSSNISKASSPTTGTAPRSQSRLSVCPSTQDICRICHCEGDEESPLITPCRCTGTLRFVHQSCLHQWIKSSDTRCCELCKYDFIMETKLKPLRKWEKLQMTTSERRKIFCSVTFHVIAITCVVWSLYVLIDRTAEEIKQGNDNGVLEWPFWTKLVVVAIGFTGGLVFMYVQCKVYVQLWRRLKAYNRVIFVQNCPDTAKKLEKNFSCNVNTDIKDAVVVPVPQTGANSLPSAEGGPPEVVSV

[2] = molecular target: T2, TANK-binding kinase 1 (TBK1) (human (cDNA from HEK293T)) (UniProt Q9UHD2); assay: as above
T2 sequence: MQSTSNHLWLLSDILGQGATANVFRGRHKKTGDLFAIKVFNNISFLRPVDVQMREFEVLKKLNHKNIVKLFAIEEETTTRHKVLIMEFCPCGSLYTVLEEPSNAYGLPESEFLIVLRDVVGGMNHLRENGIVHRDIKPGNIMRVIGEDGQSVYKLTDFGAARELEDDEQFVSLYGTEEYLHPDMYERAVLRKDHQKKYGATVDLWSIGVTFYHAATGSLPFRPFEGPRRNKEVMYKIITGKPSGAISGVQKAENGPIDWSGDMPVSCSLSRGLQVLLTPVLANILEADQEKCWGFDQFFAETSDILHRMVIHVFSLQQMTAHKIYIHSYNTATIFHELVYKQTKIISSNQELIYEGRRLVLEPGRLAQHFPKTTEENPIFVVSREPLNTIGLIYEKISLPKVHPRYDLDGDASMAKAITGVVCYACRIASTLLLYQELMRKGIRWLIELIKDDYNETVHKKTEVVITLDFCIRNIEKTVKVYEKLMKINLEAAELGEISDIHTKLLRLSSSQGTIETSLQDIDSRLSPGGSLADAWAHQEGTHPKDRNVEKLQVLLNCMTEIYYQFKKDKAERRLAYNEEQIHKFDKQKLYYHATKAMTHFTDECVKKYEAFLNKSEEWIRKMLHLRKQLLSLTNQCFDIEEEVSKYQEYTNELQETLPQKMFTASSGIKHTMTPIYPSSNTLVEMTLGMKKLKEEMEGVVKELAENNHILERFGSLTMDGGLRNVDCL

In the case of “STING-myc (stimulator of IFN genes) (from UniProt Q86WV6 1-379)”, the binding [1] is reported as “binds”.

With “p70S6 Kinase 1 (S6K1) (from UniProt P23443 1-525) (enzyme)” the binding [2] was “binds”.
